Assay results as given in article PMC7819943, “Rice protein-binding microarrays: a tool to detect cis-acting elements near promoter regions in rice”.
The list shows a part of the results.

target: T1, OsSMF1 (Oryza sativa, UniProt Q6ZLB0 1-436); test: protein-binding microarray (RPBM); PBS, 2% BSA, 51.3 ng/ul salmon testes DNA, 50 uM zinc acetate, 200 nM TF, 25 C, 1 h; high values mean tight binding; details: protein: recombinant; tags: N-terminal polyhistidine and DsRed monomer fusion (pET32a); chain copies: 2; label: CyDye5-dUTP incorporated in the synthesized complementary strand; 3' TTTTT single-stranded linker to array surface; dsDNA, one strand shown
T1 sequence: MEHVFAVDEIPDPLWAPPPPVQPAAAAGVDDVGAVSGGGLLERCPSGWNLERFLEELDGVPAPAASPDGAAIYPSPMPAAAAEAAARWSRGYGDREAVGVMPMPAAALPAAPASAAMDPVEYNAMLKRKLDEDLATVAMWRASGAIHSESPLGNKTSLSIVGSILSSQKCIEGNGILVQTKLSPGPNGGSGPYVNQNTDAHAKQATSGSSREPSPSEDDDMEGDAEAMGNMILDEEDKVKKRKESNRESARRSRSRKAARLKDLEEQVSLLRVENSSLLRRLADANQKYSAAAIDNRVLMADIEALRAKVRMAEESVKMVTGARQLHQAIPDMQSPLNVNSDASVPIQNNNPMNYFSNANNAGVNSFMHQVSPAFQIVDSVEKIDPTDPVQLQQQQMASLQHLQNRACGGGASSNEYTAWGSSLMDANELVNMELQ
In short: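 Binding signal is defined as the fluorescence intensity of each feature in arbitrary units, read on an Axon 4000B scanner. Transcription factors with N-terminal polyhistidine and DsRed fusions came from E. coli BL21-CodonPlus and were purified on Ni–NTA. They were incubated at 200 nM for 1 h at 25 °C on a custom Agilent array that had been made double-stranded with Cy5-dUTP, with 50 µM zinc acetate present, and the array was washed.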

Sequence	binding signal
CGAGCCAAAACCACGTAACAATCGCCCGCCCACGTCCCGTCGGAGTCACCTAGTGCAG	5140 fluorescence intensity (a.u.)
AGCTAGCTGAATCTCCGGAGTCCCGGACCGTTTCAGATAGCGGAGTCACCTAGTGCAG	12500 fluorescence intensity (a.u.)
CCTTCCCATGCCCTAAAATATAAAAGATTTTAGACGGATGCGGAGTCACCTAGTGCAG	4120 fluorescence intensity (a.u.)
GCGCAACTGGCAGATTCGTGGGGATTCGTGGGGATAATATCGGAGTCACCTAGTGCAG	4350 fluorescence intensity (a.u.)
TGTTGCCTTGTAGATATACACACATCACTCCATGCATCTACGGAGTCACCTAGTGCAG	3610 fluorescence intensity (a.u.)
CATGGCTGTTTGGTTATAGGGACTAAAAGGGACTTAAGTTCGGAGTCACCTAGTGCAG	3350 fluorescence intensity (a.u.)
GTGTGTCTGCGGACAGCACACAGCTGCGCATTTCGATGCGCGGAGTCACCTAGTGCAG	38100 fluorescence intensity (a.u.)
CCCTTCCGTGCCGCGTCGTGCCAGGGCCCGCGCCACGCCACGGAGTCACCTAGTGCAG	31100 fluorescence intensity (a.u.)
TCTGAGTGGACGATGATGGATGGCTAGTTCTGACTAGACGCGGAGTCACCTAGTGCAG	5440 fluorescence intensity (a.u.)
GGGAGAGGAGGAGAGGAGTTAGGTTAAATGGTCAGCACGACGGAGTCACCTAGTGCAG	3980 fluorescence intensity (a.u.)
GAGCAGAAAGACGCGGCTTCTCGAGAGTTCCAAGTTCCAACGGAGTCACCTAGTGCAG	45200 fluorescence intensity (a.u.)
GGGTTCTTCACCGATTACGCCAACCCCGCCACTACGCGGACGGAGTCACCTAGTGCAG	21900 fluorescence intensity (a.u.)
TTGACCGGTGAGGTGACACCTAATCACCGGTAGTAGTACTCGGAGTCACCTAGTGCAG	3310 fluorescence intensity (a.u.)
CCCCGCCGTCTCCTCCGCCGCCGCCATGTGGGCGCTCCGCCGGAGTCACCTAGTGCAG	3870 fluorescence intensity (a.u.)
TGGAAAACCACGATAGGCTCACAATACGACATACTATTGACGGAGTCACCTAGTGCAG	3870 fluorescence intensity (a.u.)
TTGGCACCATCGTCAAGAACCGCCGCCGCCGCTTCCGCTGCGGAGTCACCTAGTGCAG	20300 fluorescence intensity (a.u.)
ACAGCCTACCTAGGGCAACGCCGCCACCGACACAGTCACACGGAGTCACCTAGTGCAG	5080 fluorescence intensity (a.u.)
GTCGATCTCGGCCATCATGCGCTGGACCTCGTCGGCGGATCGGAGTCACCTAGTGCAG	3380 fluorescence intensity (a.u.)
TCCATCTCCAAGTCCGGTGACTCAGTAATCACTTCGCACACGGAGTCACCTAGTGCAG	5560 fluorescence intensity (a.u.)
GTACGTCTTAGAATGAACTTATTCCCCGTGTGGTACGACGCGGAGTCACCTAGTGCAG	9040 fluorescence intensity (a.u.)
GATCGATGAATCTCATGTACTGACGCACGTGATCCAATTTCGGAGTCACCTAGTGCAG	4490 fluorescence intensity (a.u.)

An excerpt of these results, in CSV form.
Sequence,binding signal
AGCTAGCTGAATCTCCGGAGTCCCGGACCGTTTCAGATAGCGGAGTCACCTAGTGCAG,12500 fluorescence intensity (a.u.)
CCTTCCCATGCCCTAAAATATAAAAGATTTTAGACGGATGCGGAGTCACCTAGTGCAG,4120 fluorescence intensity (a.u.)
GCGCAACTGGCAGATTCGTGGGGATTCGTGGGGATAATATCGGAGTCACCTAGTGCAG,4350 fluorescence intensity (a.u.)
TGTTGCCTTGTAGATATACACACATCACTCCATGCATCTACGGAGTCACCTAGTGCAG,3610 fluorescence intensity (a.u.)
CATGGCTGTTTGGTTATAGGGACTAAAAGGGACTTAAGTTCGGAGTCACCTAGTGCAG,3350 fluorescence intensity (a.u.)
GTGTGTCTGCGGACAGCACACAGCTGCGCATTTCGATGCGCGGAGTCACCTAGTGCAG,38100 fluorescence intensity (a.u.)
CCCTTCCGTGCCGCGTCGTGCCAGGGCCCGCGCCACGCCACGGAGTCACCTAGTGCAG,31100 fluorescence intensity (a.u.)
TCTGAGTGGACGATGATGGATGGCTAGTTCTGACTAGACGCGGAGTCACCTAGTGCAG,5440 fluorescence intensity (a.u.)
GGGAGAGGAGGAGAGGAGTTAGGTTAAATGGTCAGCACGACGGAGTCACCTAGTGCAG,3980 fluorescence intensity (a.u.)
GAGCAGAAAGACGCGGCTTCTCGAGAGTTCCAAGTTCCAACGGAGTCACCTAGTGCAG,45200 fluorescence intensity (a.u.)

Next entries:

Sequence	binding signal
GTCGAGGAGCTGCAGGAGAGGGAGTCGCGCCTCCGGACCGCGGAGTCACCTAGTGCAG	25200 fluorescence intensity (a.u.)
CTGCGCAGTGTGATCGATTAATCCCAATTCTCAAGCACGCCGGAGTCACCTAGTGCAG	5170 fluorescence intensity (a.u.)
AGCGCAGCAAGGCGGCAGCCGATCCGACCAACTCACCACCCGGAGTCACCTAGTGCAG	3230 fluorescence intensity (a.u.)
GCGGCTGGATTGTCGAGCGGTGAGGGTGACACGCATCTCCCGGAGTCACCTAGTGCAG	3190 fluorescence intensity (a.u.)
CTAAACTTGTAGGTGTGTCACCTAGATTCATGAACTCTCACGGAGTCACCTAGTGCAG	3570 fluorescence intensity (a.u.)
CCTTTGTTATGATTATTACTAGTACGCGTCATGACAGAAGCGGAGTCACCTAGTGCAG	5980 fluorescence intensity (a.u.)
CAGTATCTTGGGATGGCAATTATTGGAACACAGTCATTTACGGAGTCACCTAGTGCAG	22300 fluorescence intensity (a.u.)
ACTTTGCACAAGCGGGTACAAGCTCTGACGCACCTCCGAGCGGAGTCACCTAGTGCAG	3820 fluorescence intensity (a.u.)
AAACTCATCCACCGTGGACTGACGTGTGCACGATTAATCCCGGAGTCACCTAGTGCAG	5710 fluorescence intensity (a.u.)
CATTCTGGTTGTACCCTCATAATTTATTGGGGTGACGTGTCGGAGTCACCTAGTGCAG	17700 fluorescence intensity (a.u.)
ACGAGGATGACTGGCTGACTGGTACTTTGCATCGGATCATCGGAGTCACCTAGTGCAG	3910 fluorescence intensity (a.u.)
TTATTGTGCCACGTTATCTAGAACCGTCTTCAATATTGTCCGGAGTCACCTAGTGCAG	10100 fluorescence intensity (a.u.)
AAATCCTTGGTGTAATGATGCTGAATCCAATCATTCGCTTCGGAGTCACCTAGTGCAG	7000 fluorescence intensity (a.u.)
GAGATTGGGGTTTTGATGACGGGGAATTGATCTCGATCGTCGGAGTCACCTAGTGCAG	6380 fluorescence intensity (a.u.)
CCGGCCGTGCGCCGGGATCGCCATGAGGGACGTCCGGCTGCGGAGTCACCTAGTGCAG	26300 fluorescence intensity (a.u.)
ACGAATGGCGGCGGCTACGTGTCGGCGGTCGGGGACCCCGCGGAGTCACCTAGTGCAG	3460 fluorescence intensity (a.u.)
TAGGAGTTGATGATGACTAATCTGACCATAATAAAGACTGCGGAGTCACCTAGTGCAG	5150 fluorescence intensity (a.u.)
ATACAAAGCAATATGATGCATCTATATATTGTTCATACATCGGAGTCACCTAGTGCAG	3810 fluorescence intensity (a.u.)
CTTAATAGTCTCTGACAAAGCAATAAAATCAAGGTGATGTCGGAGTCACCTAGTGCAG	4090 fluorescence intensity (a.u.)
ATAAATAGAATGCTGACTGGACTGCCACGCGTACGCCATGCGGAGTCACCTAGTGCAG	22000 fluorescence intensity (a.u.)
TTATTTATAACTGATCTAATAGCCAATTCACACAATAATTCGGAGTCACCTAGTGCAG	13700 fluorescence intensity (a.u.)
